Test results: patent US8501992B2, “Hydroxyphenyl sulfonamides as antiapoptotic bcl inhibitors” (Bristol-Myers Squibb Company, priority 2008, dated 2013)
Some of these results come from one statement about several compounds together.

biological target: T1, Bcl-b (Homo sapiens, UniProt Q9HD36); assay: Bclb/Bim fluorescence polarization assay (FPA); assay type: binding; conditions: BIM BH3 peptide 5 nM, Bcl-b 40 nM, Ki calculated from FPA data
T1 construct: without their C-terminal transmembrane domain; GST; made in house
T1 sequence (Q9HD36 1-182 limits assumed): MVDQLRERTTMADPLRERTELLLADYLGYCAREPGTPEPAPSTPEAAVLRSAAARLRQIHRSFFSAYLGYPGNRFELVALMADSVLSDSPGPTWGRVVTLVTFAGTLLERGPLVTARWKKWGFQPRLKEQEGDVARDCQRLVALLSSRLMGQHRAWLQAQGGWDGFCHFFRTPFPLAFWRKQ
From the text: Compounds were profiled for their ability to disrupt in vitro binding interactions in fluorescence polarization assays (FPAs) using synthetic fluorochrome-labeled Bcl homology 3 (BH3) peptides derived from BIM [(FAM)-Ahx-[…]-NH2 (SEQ ID NO: 1) (GenBank Accession No. O43521)] or BAK [Ac-GQVGRQLAIIGE-LYS(FAM)-INR-NH2 (SEQ ID NO:2) (GenBank Accession No. Q16611) amino acid sequences and four bacterial recombinant proteins [Bcl-b (GenBank Accession No. Q9HD36), Bcl-2 (GenBank Accession No. P10415), Bcl-Xl (GenBank Accession No. Q07817), Mcl-1 (GenBank Accession No. Q07820)] without their C-terminal transmembrane domain. Proteins were purified from bacterial lysates using their glutathione S-transferase (GST)-tag (Bcl-b, Bcl-2, Mcl-1) or His6-tag (Bcl-Xl) and following one-step affinity chromatography procedures. Dissociation constants (Kd) for peptide binding protein were determined by fluorescence polarization in FPAs measuring BIM BH3 peptide binding Bcl-b, Mcl-1 or Bcl-2 protein or BAK BH3 peptide binding Bcl-Xl protein. The Kd values were generated by fitting the experimental data using a sigmoidal dose-response nonlinear regression model.
Compound inhibitory concentration values, IC50 (50% reduction in fluorescence polarization), were determined using fluorochrome-labeled BH3 peptides and recombinant Bcl proteins in fluorescence polarization assays (FPAs). Compounds diluted in DMSO (0.5 ul) were transferred (in duplicate) to individual wells of a 384-well plate. The fluorochrome-labeled peptide was added followed by recombinant protein addition. Each binding FPA reaction (50 ul) contained BIM BH3 peptide (5 nM) or BAK BH3 peptide (1.5 nM) and Bcl-b (40 nM), Mcl-1 (28 nM), Bcl-2 (11 nM) or Bcl-Xl. (5 nM) protein suspended in assay buffer [20 mM sodium phosphate, pH 7.4, 1 mM EDTA, 50 mM NaCl., 0.05% Pluronic F68]. Reaction mixtures were incubated at ambient temperature for 60 minutes prior to measuring polarization (mP) using an Analyst (LJL, Molecular Devices, Sunnyvale, Calif.) programmed to detect an emission wavelength of 530 nm after excitation (excitation wavelength=485 nm).
Competitive compound inhibition constants (Ki) were calculated using FPA experimental data and a mathematical equation, Ki=[I]50/([L]50/Kd+[P]0/Kd+1), where [I]50 denotes free inhibitor concentration at 50% inhibition, [L]50 is free labeled ligand concentration at 50% inhibition, [P]0 is free protein concentration at 0% inhibition, and Kd is the dissociation constant of the protein-ligand complex.

Ki, ≤ 10 µM:
O=S(=O)(NCc1cccc(CN(Cc2ccc(F)cc2)S(=O)(=O)c2cc(Cl)cc(Cl)c2O)c1)c1cc(Cl)cc(Cl)c1O [Example 1, 3,5-Dichloro-N-(3-((3,5-dichloro-2-hydroxyphenylsulfonamido)methyl)benzyl)-N-(4-fluorobenzyl)-2-hydroxybenzenesulfonamide]
O=C(NCc1cccc(CN(Cc2ccc(F)cc2)S(=O)(=O)c2cc(Cl)cc(Cl)c2O)c1)c1cc(O)nc(O)c1 [Example 2, N-(3-((3,5-Dichloro-N-(4-fluorobenzyl)-2-hydroxyphenylsulfonamido)methyl)benzyl)-2,6-dihydroxyisonicotinamide]
O=S(=O)(NCc1cccc(CN(Cc2ccc(-c3ccccc3)cc2)S(=O)(=O)c2cc(Cl)cc(Cl)c2O)c1)c1cc(Cl)cc(Cl)c1O [Example 3, N-(Biphenyl-4-ylmethyl)-3,5-dichloro-N-(3-((3,5-dichloro-2-hydroxyphenylsulfonamido)methyl)benzyl)-2-hydroxybenzenesulfonamide]
N#Cc1ccc(S(=O)(=O)NCc2cccc(CN(Cc3ccc(-c4ccccc4)cc3)S(=O)(=O)c3cc(Cl)cc(Cl)c3O)c2)cc1 [Example 4, N-(Biphenyl-4-ylmethyl)-3,5-dichloro-N-(3-((4-cyanophenylsulfonamido)methyl)benzyl)-2-hydroxybenzenesulfonamide]
Cc1ccc(S(=O)(=O)NCc2cccc(CN(Cc3ccc(Oc4ccc(F)cc4)cc3)S(=O)(=O)c3cc(Cl)cc(Cl)c3O)c2)cc1 [Example 5, 3,5-Dichloro-N-(4-(4-fluorophenoxy)benzyl)-2-hydroxy-N-(3-((4-methylphenylsulfonamido)methyl)benzyl)benzenesulfonamide]
O=S(=O)(NCc1cccc(CN(Cc2cccc(OC(F)(F)F)c2)S(=O)(=O)c2cc(Cl)cc(Cl)c2O)c1)c1cc(Cl)cc(Cl)c1O [Example 6, 3,5-Dichloro-N-(3-((3,5-dichloro-2-hydroxyphenylsulfonamido)methyl)benzyl)-2-hydroxy-N-(3-(trifluoromethoxy)benzyl)benzenesulfonamide]
CC(C)CN(Cc1cc(CN(Cc2ccc(F)cc2)S(=O)(=O)c2cc(Cl)cc(Cl)c2O)cc(Oc2ccc(F)cc2)c1)S(=O)(=O)c1cc(Cl)cc(Cl)c1 [Example 7, 3,5-Dichloro-N-(3-((3,5-dichloro-N-isobutylphenylsulfonamido)methyl)-5-(4-fluorophenoxy)benzyl)-N-(4-fluorobenzyl)-2-hydroxybenzenesulfonamide]
Cc1ccc(S(=O)(=O)N(Cc2cc(CN(Cc3ccc(F)cc3)S(=O)(=O)c3cc(Cl)cc(Cl)c3O)cc(Oc3ccc(F)cc3)c2)CC(C)C)cc1 [Example 8, 3,5-Dichloro-N-(4-fluorobenzyl)-N-(3-(4-fluorophenoxy)-5-((N-isobutyl-4-methylphenylsulfonamido)methyl)benzyl)-2-hydroxybenzenesulfonamide]
O=C(NCc1cccc(CN(Cc2ccc(-c3ccccc3)cc2)S(=O)(=O)c2cc(Cl)cc(Cl)c2O)c1)c1cc(O)c(O)c(O)c1 [Example 9]
O=C(NCc1cccc(CN(Cc2ccc(C(F)(F)F)cc2)S(=O)(=O)c2cc(Cl)cc(Cl)c2O)c1)Nc1ccc(F)cc1F [Example 10, 3,5-Dichloro-N-(3-((3-(2,4-difluorophenyl)ureido)methyl)benzyl)-2-hydroxy-N-(4-(trifluoromethyl)benzyl)benzenesulfonamide]
O=C(NCc1cccc(CN(Cc2ccc(C(F)(F)F)cc2)S(=O)(=O)c2cc(Cl)cc(Cl)c2O)c1)Nc1ccc(-c2ccccc2)cc1 [Example 11, N-(3-((3-Biphenyl-4-ylureido)methyl)benzyl)-3,5-dichloro-2-hydroxy-N-(4-(trifluoromethyl)benzyl)benzenesulfonamide]
O=C(NCc1cccc(CN(Cc2ccc(C(F)(F)F)cc2)S(=O)(=O)c2cc(Cl)cc(Cl)c2O)c1)N1CCN(c2ccccc2Cl)CC1 [Example 12, 4-(2-Chlorophenyl)-N-(3-((3,5-dichloro-2-hydroxy-N-(4-(trifluoromethyl)benzyl)phenylsulfonamido)methyl)benzyl)piperazine-1-carboxamide]
Cc1ccc(S(=O)(=O)N(Cc2ccc(F)cc2)Cc2cc(CNS(=O)(=O)c3cc(Cl)cc(Cl)c3O)cc(-c3ccc(F)cc3)c2)cc1 [Example 13, 3,5-Dichloro-N-((4′-fluoro-5-((N-(4-fluorobenzyl)-4-methylphenylsulfonamido)methyl)biphenyl-3-yl)methyl)-2-hydroxybenzenesulfonamide]
O=S(=O)(c1cc(Cl)cc(Cl)c1O)N(Cc1ccc(F)cc1)Cc1cc(CN(Cc2ccc(F)cc2)S(=O)(=O)c2cc(Cl)cc(Cl)c2O)cc(C2CC2)c1 [Example 14]
CC(C)CN(Cc1cc(Cl)cc(CN(CC(C)C)S(=O)(=O)c2cc(Cl)cc(Cl)c2O)c1)S(=O)(=O)c1cccnc1 [Example 15]
Cc1ccc(S(=O)(=O)N(Cc2cc(Cl)cc(CN(CC(C)C)S(=O)(=O)c3cc(Cl)cc(Cl)c3O)c2)CC(C)C)cc1 [Example 16, 3,5-Dichloro-N-(3-chloro-5-((N-isobutyl-4-methylphenylsulfonamido)methyl)benzyl)-2-hydroxy-N-isobutylbenzenesulfonamide]
CC(C)CN(Cc1cc(Cl)cc(CN(CC(C)C)S(=O)(=O)c2cc(Cl)cc(Cl)c2O)c1)C(=O)c1ccc(Cl)nc1 [Example 17, 6-Chloro-N-(3-chloro-5-((3,5-dichloro-2-hydroxy-N-isobutylphenylsulfonamido)methyl)benzyl)-N-isobutylnicotinamide]
O=S(=O)(NCc1cc(CN(Cc2ccc(F)cc2)S(=O)(=O)c2cc(Cl)cc(Cl)c2O)cc(Oc2ccc(F)cc2)c1)c1cc(Cl)cc(Cl)c1O [Example 18, 3,5-Dichloro-N-(3-((3,5-dichloro-2-hydroxyphenylsulfonamido)methyl)-5-(4-fluorophenoxy)benzyl)-N-(4-fluorobenzyl)-2-hydroxybenzenesulfonamide]
CC(C)CN(Cc1cc(CN(Cc2ccc(F)cc2)S(=O)(=O)c2cc(Cl)cc(Cl)c2O)cc(Oc2ccc(F)cc2)c1)C(=O)c1cccnc1 [Example 19, N-(3-((3,5-Dichloro-N-(4-fluorobenzyl)-2-hydroxyphenylsulfonamido)methyl)-5-(4-fluorophenoxy)benzyl)-N-isobutylnicotinamide]
O=C(NCc1cc(CN(Cc2ccc(F)cc2)S(=O)(=O)c2cc(Cl)cc(Cl)c2O)cc(Oc2ccc(F)cc2)c1)Nc1ccc(F)cc1F [Example 21, 3,5-Dichloro-N-(3-((3-(2,4-difluorophenyl)ureido)methyl)-5-(4-fluorophenoxy)benzyl)-N-(4-fluorobenzyl)-2-hydroxybenzenesulfonamide]
O=S(=O)(c1cc(Cl)cc(Cl)c1O)N(Cc1ccc(F)cc1)Cc1cccc(CN(Cc2ccc(F)cc2)S(=O)(=O)c2cc(Cl)cc(Cl)c2O)c1 [Example 22, N-(4-Fluoro-benzyl)-N-(3-{[(4-fluoro-benzyl)-(3,5-dichloro-2-hydroxybenzene)sulfonyl-amino]-methyl}-benzyl)-3,5-dichloro-2-hydroxybenzenesulfonamide]
